Experimental data: PubChem BioAssay AID1671190 (National Center for Advancing Translational Sciences (NCATS), 2021)
Several values for one entry are separate records, joined by “and”; a condition that tells them apart may be missing. Equal values may be shown once. Screen size: about 580,000 compounds; about 6,100 (1.1%) were called active. The inconclusive results got no clear call from the source; some entries with a clear call stand among them for comparison. The call rests on the fitted dose curve; in most records, active means well fitted inhibition curve with a large enough effect; inconclusive means small, poorly fitted or top-dose-only effect, or another doubt; inactive means no such curve, though single readings can be large or run the other way. Where the call is inconclusive, the potency comes from a doubtful curve fit.

Protein sequences, listed by entry. Tags and fused reporters are not part of them.
UniProt P18054, whole entry, looked up: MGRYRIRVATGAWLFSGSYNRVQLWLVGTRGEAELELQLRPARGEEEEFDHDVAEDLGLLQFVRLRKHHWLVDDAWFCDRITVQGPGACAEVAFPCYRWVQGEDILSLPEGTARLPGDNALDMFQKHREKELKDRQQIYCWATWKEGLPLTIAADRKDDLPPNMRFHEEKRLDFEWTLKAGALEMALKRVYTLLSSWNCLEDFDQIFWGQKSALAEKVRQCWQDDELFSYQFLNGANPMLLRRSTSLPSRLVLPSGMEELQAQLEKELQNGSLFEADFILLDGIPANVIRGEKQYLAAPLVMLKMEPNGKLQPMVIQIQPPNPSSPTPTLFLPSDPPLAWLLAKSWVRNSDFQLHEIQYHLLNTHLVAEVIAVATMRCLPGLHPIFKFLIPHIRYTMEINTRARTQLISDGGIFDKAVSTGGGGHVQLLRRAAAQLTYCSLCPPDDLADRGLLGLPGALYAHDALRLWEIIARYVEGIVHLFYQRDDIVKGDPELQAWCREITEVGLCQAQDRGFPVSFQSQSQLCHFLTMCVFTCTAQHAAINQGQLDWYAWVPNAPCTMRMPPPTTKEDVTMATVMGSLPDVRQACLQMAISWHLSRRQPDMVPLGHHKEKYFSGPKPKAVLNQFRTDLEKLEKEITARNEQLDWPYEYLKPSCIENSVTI

target: Polyunsaturated fatty acid lipoxygenase ALOX12 (Homo sapiens) (UniProt P18054); assay: Primary qHTS assay for inhibitors of human arachidonate 12S-lipoxygenase (ALOX12): Round 2; conditions: purified 12hLO, xylenol orange hydroperoxide absorbance; series mostly up to 108 µM
In short: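 Hydroperoxide product was detected by ferrous iron/xylenol orange as the 573 to 405 nm absorbance ratio. Arachidonic acid at 40 uM (final) was turned over for 30 min at room temperature by 150 nM human 12hLO, pH 7.0 Hepes buffer, after 15 min compound preincubation.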
Potency means the concentration at half of the fitted maximal effect.

Row | Structure (SMILES) | Potency
1 | CCOc1ccc(C2Cn3nnc(-c4nc(-c5cccc(OCC)c5)no4)c3CO2)cc1 (centres undefined) | inactive
2 | N#Cc1ccc(N2CCC(C(=O)Nc3cccc(S(=O)(=O)N4CCCC4)c3)CC2)nc1 | inactive
3 | Cn1c(=O)[nH]c(=O)c2c1nc(N/N=C/c1cccnc1)n2Cc1ccc(Cl)cc1 | inconclusive: 112 µM [inhibitor, partial curve, poor fit]
4 | Cn1nc(-c2ccccc2)cc1NC(=O)c1ccccc1 | inconclusive: 39.8 µM [inhibitor, partial curve, poor fit]
5 | Cc1c(N/C=C/C(=O)C(F)(F)F)c(=O)n(-c2ccccc2)n1C | inconclusive: 50.1 µM [inhibitor, partial curve, poor fit]
6 | CCOC(=O)c1cc2c(C)n(-c3ccc(OCC)cc3)c(C)c2ccc1=O | active: 39.8 µM
7 | CCOC(=O)C1CCC(CN(Cc2ccc(Cl)cc2)S(=O)(=O)c2ccc(F)c(C(=O)Nc3cccc(F)c3)c2)CC1 (centres undefined) | inconclusive: 112 µM [inhibitor, partial curve, poor fit]
8 | O=C(C[C@@H]1C[C@H]2O[C@H](CNCc3ccncc3F)[C@@H](O)[C@H]2O1)N1CCOCC1 | inconclusive: 56.2 µM [inhibitor, full curve, poor fit]
9 | S=C1Cc2ccccc2C(c2ccc(Cl)cc2)N1 (centres undefined) | inconclusive: 39.8 µM [inhibitor, single point]
10 | Cc1cccc(C)c1N(CC(=O)N1CCCC1)S(C)(=O)=O | inconclusive: 0.501 µM [inhibitor, full curve, poor fit]
11 | Cc1cc(C)n(-c2ccc(C(=O)Nc3cccnc3Cl)cc2)n1 | inactive
12 | COc1ccc(CNC(=O)C2CCCN2c2nc(C)c3ccccc3n2)cc1 (centres undefined) | inconclusive: 79.4 µM [inhibitor, single point]
13 | COc1ccc(-c2ccc(=O)n(CC(=O)Nc3ccc(C)cc3C)n2)cc1 | inconclusive: 112 µM [inhibitor, partial curve, poor fit]
14 | C[C@H](NC(=O)C(c1ccccc1)c1ccccc1)c1ccccc1 | inconclusive: 112 µM [inhibitor, single point]
15 | O=C(Nc1ccc(F)cc1)C1CCCN(C(=O)Cc2cccc3ccccc23)C1 (centres undefined) | inactive
16 | Cc1ccc(-c2ccc(CCC(=O)O)n2-c2cccc(O)c2)cc1 | inconclusive: 15.8 µM [inhibitor, full curve, poor fit] and inconclusive: 50.1 µM [inhibitor, partial curve, poor fit]
17 | CC(C)C(NC(=O)c1ccc(CS(C)(=O)=O)cc1)c1ccc(F)cc1 (centres undefined) | inconclusive: 50.1 µM [inhibitor, partial curve, poor fit]
18 | CN1CCN(CCCNC(=O)c2ccc(/C=C3\Oc4ccccc4N(Cc4ccccc4F)C3=O)cc2)CC1 | inactive
19 | COc1ccc2c(c1OC)C(=O)N1C2SC(C)(C)[C@H]1C(=O)NCCCOC(C)C (some centres undefined) | inconclusive: 31.6 µM [inhibitor, single point]
20 | O=C(CNC(=S)NC(=O)c1ccc(Cl)cc1)c1ccccc1 | inconclusive: 100 µM [inhibitor, partial curve, poor fit]

Row | Structure (SMILES) | Potency
21 | O=C(COC(=O)c1cc([N+](=O)[O-])ccc1N1CCOCC1)c1ccccc1Cl | inconclusive: 112 µM [inhibitor, partial curve, poor fit]
22 | Cc1nc2nc(NCc3ccc(Cl)cc3)[nH]n2c(=O)c1CCO | inactive
23 | O=C(NCc1ccc2c(c1)OCO2)[C@@H]1[C@@H](CO)[C@@H]2Cn3c(cccc3=O)[C@H]1N2Cc1cccnc1 | inconclusive: 158 µM [inhibitor, partial curve, poor fit]
24 | CCc1ccc([C@@H]2CC(=O)[C@@H]3CN(S(=O)(=O)c4ccccc4C)[C@H](c4ccc(Cl)cc4)C[C@@H]3N2S(=O)(=O)c2ccc(C)cc2)cc1 | inconclusive: 141 µM [inhibitor, single point]
25 | O=S(=O)(NCC1(c2ccccc2)CCC1)c1ccc(F)c(F)c1 | inconclusive: 56.2 µM [inhibitor, partial curve, poor fit]
26 | O=C(NCc1cn(-c2ccccc2)nc1-c1ccccc1)c1ccc([N+](=O)[O-])cc1 | inactive
27 | COC(=O)C1=C(C)N(Cc2ccccc2)C(=S)NC1c1cccc(Br)c1 (centres undefined) | active: 39.8 µM
28 | COc1ccc(-c2csc(Nc3ccc(S(N)(=O)=O)cc3)n2)cc1OC | inconclusive: 79.4 µM [inhibitor, single point]
29 | Cc1ccc(/C=C/S(=O)(=O)NCCC(=O)O)cc1 | inactive
30 | C1CCC(CN2CCNCC2)C1 | inconclusive: 35.5 µM [inhibitor, partial curve, poor fit]
31 | Cc1cc(C(=O)OCC(=O)c2cccs2)c2ccccc2n1 | inconclusive: 28.2 µM [inhibitor, partial curve, poor fit]
32 | Fc1ccc(-c2cc(CC3(NCc4ccco4)COC3)no2)cc1 | inconclusive: 7.94 µM [inhibitor, full curve, poor fit]
33 | CN1C[C@@H](F)[C@@H](OCc2nc3ccc(C(F)(F)F)cc3[nH]2)C1 | inactive
34 | Cc1c(-c2cccs2)nc2ccccc2c1-c1ccccc1 | inconclusive: 0.631 µM [inhibitor, partial curve, poor fit]
35 | Cn1nc(C(=O)OCc2ccc(C(C)(C)C)cc2)c2ccccc2c1=O | inconclusive: 6.31 µM [inhibitor, partial curve, poor fit]
36 | COc1ccc([C@@H]2CN(Cc3ccc(C#N)cc3)C[C@H]2N(C)C)cc1 | inconclusive: 25.1 µM [inhibitor, full curve]
37 | CC(C)CCn1c(COc2ccccc2)n[nH]c1=S | inconclusive: 79.4 µM [inhibitor, partial curve, poor fit] and active: 15.8 µM
38 | COc1cccc(-c2cc(-c3nc(C4CC(=O)N(C5CCCCC5)C4)no3)[nH]n2)c1 (centres undefined) | inactive
39 | COc1ccccc1C1NC(=O)NC(C)=C1C(=O)OC1CCCC(C)C1 (centres undefined) | inconclusive: 89.1 µM [inhibitor, single point]

An excerpt from above in order of formula weight, descending:
Row | Structure (SMILES) | Potency
38 | COc1cccc(-c2cc(-c3nc(C4CC(=O)N(C5CCCCC5)C4)no3)[nH]n2)c1 (centres undefined) | inactive
21 | O=C(COC(=O)c1cc([N+](=O)[O-])ccc1N1CCOCC1)c1ccccc1Cl | inconclusive: 112 µM [inhibitor, partial curve, poor fit]
28 | COc1ccc(-c2csc(Nc3ccc(S(N)(=O)=O)cc3)n2)cc1OC | inconclusive: 79.4 µM [inhibitor, single point]
39 | COc1ccccc1C1NC(=O)NC(C)=C1C(=O)OC1CCCC(C)C1 (centres undefined) | inconclusive: 89.1 µM [inhibitor, single point]
25 | O=S(=O)(NCC1(c2ccccc2)CCC1)c1ccc(F)c(F)c1 | inconclusive: 56.2 µM [inhibitor, partial curve, poor fit]
32 | Fc1ccc(-c2cc(CC3(NCc4ccco4)COC3)no2)cc1 | inconclusive: 7.94 µM [inhibitor, full curve, poor fit]
33 | CN1C[C@@H](F)[C@@H](OCc2nc3ccc(C(F)(F)F)cc3[nH]2)C1 | inactive
31 | Cc1cc(C(=O)OCC(=O)c2cccs2)c2ccccc2n1 | inconclusive: 28.2 µM [inhibitor, partial curve, poor fit]
34 | Cc1c(-c2cccs2)nc2ccccc2c1-c1ccccc1 | inconclusive: 0.631 µM [inhibitor, partial curve, poor fit]
30 | C1CCC(CN2CCNCC2)C1 | inconclusive: 35.5 µM [inhibitor, partial curve, poor fit]
